The text below walks through data of the supplement of paper PMC7666118.

Sequences of proteins named here, by UniProt entry; tags and fusion partners are left off. A change or cut given only in a name is not applied to a line headed by its entry.
UniProt Q8N163, whole entry: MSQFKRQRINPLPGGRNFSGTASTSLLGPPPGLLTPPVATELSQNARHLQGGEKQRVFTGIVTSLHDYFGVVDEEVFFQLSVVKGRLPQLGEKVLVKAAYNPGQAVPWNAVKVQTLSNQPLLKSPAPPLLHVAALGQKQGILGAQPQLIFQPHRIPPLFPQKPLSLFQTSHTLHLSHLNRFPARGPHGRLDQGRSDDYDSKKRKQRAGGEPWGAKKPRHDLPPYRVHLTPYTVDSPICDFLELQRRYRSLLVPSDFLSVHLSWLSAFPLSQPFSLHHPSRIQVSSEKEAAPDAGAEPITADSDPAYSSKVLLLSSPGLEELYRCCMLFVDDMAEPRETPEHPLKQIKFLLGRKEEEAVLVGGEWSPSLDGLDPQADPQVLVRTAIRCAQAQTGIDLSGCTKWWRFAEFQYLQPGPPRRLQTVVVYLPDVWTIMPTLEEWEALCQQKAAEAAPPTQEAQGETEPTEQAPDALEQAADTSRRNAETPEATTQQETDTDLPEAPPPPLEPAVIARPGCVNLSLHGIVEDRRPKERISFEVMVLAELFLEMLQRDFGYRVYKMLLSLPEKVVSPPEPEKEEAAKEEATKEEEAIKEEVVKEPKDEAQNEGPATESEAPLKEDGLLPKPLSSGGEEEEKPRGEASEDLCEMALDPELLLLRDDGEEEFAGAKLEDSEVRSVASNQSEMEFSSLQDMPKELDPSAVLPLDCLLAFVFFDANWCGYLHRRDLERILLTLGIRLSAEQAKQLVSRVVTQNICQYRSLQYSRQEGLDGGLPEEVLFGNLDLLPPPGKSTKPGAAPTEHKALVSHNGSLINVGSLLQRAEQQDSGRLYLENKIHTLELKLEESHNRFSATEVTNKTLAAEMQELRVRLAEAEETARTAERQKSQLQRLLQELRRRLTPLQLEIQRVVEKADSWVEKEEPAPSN
UniProt O14910: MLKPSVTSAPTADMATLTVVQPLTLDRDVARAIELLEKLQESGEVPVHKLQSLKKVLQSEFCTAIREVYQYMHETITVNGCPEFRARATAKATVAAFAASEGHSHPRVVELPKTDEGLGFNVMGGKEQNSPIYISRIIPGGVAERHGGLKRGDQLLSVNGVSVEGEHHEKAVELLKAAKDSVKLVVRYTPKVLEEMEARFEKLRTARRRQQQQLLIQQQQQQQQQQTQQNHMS
UniProt Q96CX6, whole entry: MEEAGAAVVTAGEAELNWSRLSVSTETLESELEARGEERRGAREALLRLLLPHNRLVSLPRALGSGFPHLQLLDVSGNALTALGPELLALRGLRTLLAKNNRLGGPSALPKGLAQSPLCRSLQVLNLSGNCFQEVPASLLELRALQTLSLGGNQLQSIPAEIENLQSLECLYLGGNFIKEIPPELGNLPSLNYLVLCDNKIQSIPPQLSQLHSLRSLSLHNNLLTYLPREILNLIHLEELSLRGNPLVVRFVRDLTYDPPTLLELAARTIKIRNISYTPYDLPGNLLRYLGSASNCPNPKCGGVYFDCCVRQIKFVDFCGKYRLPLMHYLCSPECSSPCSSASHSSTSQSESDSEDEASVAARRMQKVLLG
UniProt Q6UWP7: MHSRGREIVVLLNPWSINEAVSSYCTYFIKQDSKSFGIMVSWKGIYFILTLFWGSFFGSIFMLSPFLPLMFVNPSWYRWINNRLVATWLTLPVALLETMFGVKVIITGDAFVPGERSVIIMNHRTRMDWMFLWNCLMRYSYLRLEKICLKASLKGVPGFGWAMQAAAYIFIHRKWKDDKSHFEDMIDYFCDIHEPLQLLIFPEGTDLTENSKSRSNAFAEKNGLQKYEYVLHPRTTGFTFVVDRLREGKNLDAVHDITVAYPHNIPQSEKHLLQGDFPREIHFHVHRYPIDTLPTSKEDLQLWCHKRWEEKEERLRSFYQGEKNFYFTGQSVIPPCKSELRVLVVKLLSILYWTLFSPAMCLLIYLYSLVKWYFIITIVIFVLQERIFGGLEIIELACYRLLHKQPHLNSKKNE
UniProt Q92615, whole entry: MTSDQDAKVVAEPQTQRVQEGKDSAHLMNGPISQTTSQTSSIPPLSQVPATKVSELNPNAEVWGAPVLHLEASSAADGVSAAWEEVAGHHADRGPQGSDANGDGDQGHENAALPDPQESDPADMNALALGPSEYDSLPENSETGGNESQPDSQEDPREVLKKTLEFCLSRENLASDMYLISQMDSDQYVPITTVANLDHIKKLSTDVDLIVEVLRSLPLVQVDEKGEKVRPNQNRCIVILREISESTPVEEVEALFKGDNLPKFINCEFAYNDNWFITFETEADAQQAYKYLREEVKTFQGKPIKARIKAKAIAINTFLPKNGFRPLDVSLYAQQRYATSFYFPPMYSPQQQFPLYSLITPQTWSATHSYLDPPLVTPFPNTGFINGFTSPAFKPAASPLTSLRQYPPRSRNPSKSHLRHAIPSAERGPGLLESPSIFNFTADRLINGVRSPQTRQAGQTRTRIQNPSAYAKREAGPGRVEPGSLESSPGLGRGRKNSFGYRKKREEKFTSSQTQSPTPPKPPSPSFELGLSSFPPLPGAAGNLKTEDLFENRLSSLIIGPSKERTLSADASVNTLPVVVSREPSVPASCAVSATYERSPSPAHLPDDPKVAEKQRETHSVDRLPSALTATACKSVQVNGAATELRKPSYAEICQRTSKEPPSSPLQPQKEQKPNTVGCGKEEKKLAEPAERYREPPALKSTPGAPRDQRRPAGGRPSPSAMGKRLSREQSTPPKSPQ
UniProt O95202: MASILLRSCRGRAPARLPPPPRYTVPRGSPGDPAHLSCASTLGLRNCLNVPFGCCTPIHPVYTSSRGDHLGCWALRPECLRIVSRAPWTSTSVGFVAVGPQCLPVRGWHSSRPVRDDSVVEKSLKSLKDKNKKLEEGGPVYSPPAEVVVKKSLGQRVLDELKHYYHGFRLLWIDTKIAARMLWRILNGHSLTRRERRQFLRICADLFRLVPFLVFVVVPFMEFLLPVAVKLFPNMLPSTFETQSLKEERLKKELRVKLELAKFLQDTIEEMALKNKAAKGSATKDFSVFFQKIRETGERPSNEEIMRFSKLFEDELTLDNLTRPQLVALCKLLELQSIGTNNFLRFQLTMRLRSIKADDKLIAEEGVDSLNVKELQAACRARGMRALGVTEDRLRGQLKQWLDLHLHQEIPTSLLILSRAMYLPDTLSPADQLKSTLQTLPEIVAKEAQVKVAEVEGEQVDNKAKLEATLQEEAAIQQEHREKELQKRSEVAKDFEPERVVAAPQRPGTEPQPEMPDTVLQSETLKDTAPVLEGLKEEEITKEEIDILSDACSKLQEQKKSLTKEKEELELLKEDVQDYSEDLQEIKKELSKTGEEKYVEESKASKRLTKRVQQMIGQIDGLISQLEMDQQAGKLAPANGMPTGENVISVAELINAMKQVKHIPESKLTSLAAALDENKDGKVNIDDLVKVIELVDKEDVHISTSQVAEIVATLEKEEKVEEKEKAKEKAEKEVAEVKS
UniProt Q7Z4S6: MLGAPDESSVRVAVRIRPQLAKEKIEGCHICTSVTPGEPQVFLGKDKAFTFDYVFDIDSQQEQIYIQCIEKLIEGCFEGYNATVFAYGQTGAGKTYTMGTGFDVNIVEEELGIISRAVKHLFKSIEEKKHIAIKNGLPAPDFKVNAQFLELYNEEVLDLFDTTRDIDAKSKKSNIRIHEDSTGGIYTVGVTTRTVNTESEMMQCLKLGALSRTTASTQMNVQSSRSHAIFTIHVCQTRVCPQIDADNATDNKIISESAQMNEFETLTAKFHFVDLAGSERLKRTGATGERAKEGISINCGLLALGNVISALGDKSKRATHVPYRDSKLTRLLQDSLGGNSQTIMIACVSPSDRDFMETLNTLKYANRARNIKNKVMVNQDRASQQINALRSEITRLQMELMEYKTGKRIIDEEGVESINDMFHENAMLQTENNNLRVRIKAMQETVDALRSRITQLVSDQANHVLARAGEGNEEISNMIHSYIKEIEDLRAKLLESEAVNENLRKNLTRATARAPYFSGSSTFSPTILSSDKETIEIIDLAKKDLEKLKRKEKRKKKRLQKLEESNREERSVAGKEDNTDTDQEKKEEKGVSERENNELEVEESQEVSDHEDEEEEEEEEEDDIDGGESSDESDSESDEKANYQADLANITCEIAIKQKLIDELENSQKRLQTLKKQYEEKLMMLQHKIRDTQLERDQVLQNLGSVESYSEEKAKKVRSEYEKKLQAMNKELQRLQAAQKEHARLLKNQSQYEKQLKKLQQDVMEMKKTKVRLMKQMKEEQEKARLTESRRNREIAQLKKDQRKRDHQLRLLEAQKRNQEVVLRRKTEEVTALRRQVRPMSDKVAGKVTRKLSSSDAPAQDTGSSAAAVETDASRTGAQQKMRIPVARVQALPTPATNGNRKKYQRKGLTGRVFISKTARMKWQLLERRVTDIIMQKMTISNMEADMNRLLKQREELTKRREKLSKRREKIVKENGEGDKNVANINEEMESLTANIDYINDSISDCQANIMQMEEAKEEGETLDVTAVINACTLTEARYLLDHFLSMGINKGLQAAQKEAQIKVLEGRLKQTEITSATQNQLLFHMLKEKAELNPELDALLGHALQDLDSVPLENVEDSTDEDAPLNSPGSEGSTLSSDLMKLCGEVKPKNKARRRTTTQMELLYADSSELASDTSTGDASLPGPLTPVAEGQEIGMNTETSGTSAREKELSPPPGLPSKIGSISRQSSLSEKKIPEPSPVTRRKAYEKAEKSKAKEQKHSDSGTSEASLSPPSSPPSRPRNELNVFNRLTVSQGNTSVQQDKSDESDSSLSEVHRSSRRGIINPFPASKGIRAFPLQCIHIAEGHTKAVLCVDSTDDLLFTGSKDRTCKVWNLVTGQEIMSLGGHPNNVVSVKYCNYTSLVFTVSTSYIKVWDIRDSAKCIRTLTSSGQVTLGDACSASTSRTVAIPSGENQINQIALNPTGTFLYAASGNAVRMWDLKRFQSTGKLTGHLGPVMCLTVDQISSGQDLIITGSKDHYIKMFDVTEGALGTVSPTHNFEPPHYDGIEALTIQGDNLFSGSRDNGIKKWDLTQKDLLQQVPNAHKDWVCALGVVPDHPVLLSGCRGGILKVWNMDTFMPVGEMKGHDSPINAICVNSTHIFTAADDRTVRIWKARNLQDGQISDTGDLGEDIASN
UniProt O95777: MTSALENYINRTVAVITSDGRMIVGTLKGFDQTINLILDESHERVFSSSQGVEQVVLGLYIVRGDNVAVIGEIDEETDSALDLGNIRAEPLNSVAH
UniProt Q12907: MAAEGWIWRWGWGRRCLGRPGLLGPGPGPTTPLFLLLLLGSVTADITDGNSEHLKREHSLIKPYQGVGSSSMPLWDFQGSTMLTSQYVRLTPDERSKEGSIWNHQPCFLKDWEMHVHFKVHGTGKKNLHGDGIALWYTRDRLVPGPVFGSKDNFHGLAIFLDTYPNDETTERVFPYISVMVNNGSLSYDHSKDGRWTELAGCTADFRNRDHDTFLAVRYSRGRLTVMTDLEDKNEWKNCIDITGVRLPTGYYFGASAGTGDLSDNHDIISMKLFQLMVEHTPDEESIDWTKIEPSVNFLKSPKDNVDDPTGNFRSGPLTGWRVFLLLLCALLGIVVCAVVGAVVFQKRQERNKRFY
UniProt O94889: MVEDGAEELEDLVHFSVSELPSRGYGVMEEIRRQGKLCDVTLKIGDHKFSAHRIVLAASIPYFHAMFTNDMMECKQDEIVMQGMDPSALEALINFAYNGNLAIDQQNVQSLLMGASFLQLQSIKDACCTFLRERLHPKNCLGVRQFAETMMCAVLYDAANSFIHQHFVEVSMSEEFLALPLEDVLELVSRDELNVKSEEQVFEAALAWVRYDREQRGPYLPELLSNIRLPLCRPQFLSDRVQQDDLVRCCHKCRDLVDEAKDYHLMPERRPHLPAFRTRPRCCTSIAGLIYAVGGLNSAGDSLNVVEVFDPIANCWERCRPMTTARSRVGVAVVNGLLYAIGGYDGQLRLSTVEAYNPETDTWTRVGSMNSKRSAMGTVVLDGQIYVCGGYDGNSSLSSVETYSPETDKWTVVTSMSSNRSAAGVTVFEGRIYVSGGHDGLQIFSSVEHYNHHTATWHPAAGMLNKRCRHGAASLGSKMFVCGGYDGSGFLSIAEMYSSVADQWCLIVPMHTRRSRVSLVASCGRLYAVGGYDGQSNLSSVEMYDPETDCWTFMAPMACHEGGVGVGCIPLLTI
UniProt Q9UK45: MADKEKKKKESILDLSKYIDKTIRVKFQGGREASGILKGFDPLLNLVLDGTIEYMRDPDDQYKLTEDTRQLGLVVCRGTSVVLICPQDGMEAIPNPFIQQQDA
UniProt Q8N9N7: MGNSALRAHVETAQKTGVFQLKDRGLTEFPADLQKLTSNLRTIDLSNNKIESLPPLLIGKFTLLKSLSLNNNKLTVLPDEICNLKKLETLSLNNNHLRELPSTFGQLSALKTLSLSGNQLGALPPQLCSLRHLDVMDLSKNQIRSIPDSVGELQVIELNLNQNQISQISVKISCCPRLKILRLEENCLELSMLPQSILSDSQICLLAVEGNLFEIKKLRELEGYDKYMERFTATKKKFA

The list shows a part of the results.

Compound in this assay: COc1ccc(Cn2ccc3ccc(C(=O)NO)cc32)cc1
Kind of assay: dose-dependent thermal stabilisation call (2D-TPP, DLPTP, 10% FDR) (binary (1 = stabilised)); higher = stabilised by the compound. Conditions: system: HL-60 intact cells; concentration range 0.04-10 µM.
As for LCP2 (UniProt Q13094), the “dose-dependent thermal stabilisation call” value was inactive: 0.
As to LASS2 (UniProt Q96G23), the “dose-dependent thermal stabilisation call” value is inactive: 0.
The value for LARP1 (UniProt Q6PKG0) was inactive: 0.
For the target LYSMD1 (UniProt Q96S90), the “dose-dependent thermal stabilisation call” value is inactive: 0.
The value for KIAA1967 (UniProt Q8N163) was inactive: 0; that for LSM14B (UniProt Q9BX40) was inactive: 0; that for LIN7A (UniProt O14910) was inactive: 0.
Regarding LOC90379, the “dose-dependent thermal stabilisation call” value is inactive: 0.
Turning to LRRC58 (UniProt Q96CX6), the “dose-dependent thermal stabilisation call” value is inactive: 0.
As for LCLAT1 (UniProt Q6UWP7), the “dose-dependent thermal stabilisation call” value was inactive: 0.
With LTA4H (UniProt P09960), the “dose-dependent thermal stabilisation call” value was inactive: 0.
With LARP5 (UniProt Q92615), the “dose-dependent thermal stabilisation call” value was inactive: 0.
In the case of LETM1 (UniProt O95202) it was inactive: 0; in that of KIAA1432 (UniProt Q4ADV7), inactive: 0; in that of LARS2 (UniProt Q15031), inactive: 0.
The value for KLC2 (UniProt Q9H0B6) was inactive: 0.
As for LOC387787, the “dose-dependent thermal stabilisation call” value was inactive: 0.
The value for KIF21A (UniProt Q7Z4S6) was inactive: 0; that for KIAA1033 (UniProt Q2M389) was inactive: 0; that for LSM8 (UniProt O95777) was inactive: 0.
In the case of KIAA0664 (UniProt O75153) it was inactive: 0.
KIF14 (UniProt Q15058): the “dose-dependent thermal stabilisation call” value was inactive: 0.
Take LMAN2 (UniProt Q12907): the “dose-dependent thermal stabilisation call” value was inactive: 0.
In the case of LOC100130633, the “dose-dependent thermal stabilisation call” value was inactive: 0.
Consider KLHL18 (UniProt O94889), for which the “dose-dependent thermal stabilisation call” value was inactive: 0.
For LIMK1 (UniProt P53667), the “dose-dependent thermal stabilisation call” value was inactive: 0.
The value for LSM7 (UniProt Q9UK45) was inactive: 0; that for KIAA1797 (UniProt Q5VW36) was inactive: 0.
Turning to MAN2B1 (UniProt O00754), the “dose-dependent thermal stabilisation call” value was inactive: 0.
As for LYST (UniProt Q99698), the “dose-dependent thermal stabilisation call” value is inactive: 0.
As for LIPA (UniProt P38571), the “dose-dependent thermal stabilisation call” value is inactive: 0.
The value for LRCH4 (UniProt O75427) was inactive: 0.
Regarding KIF2C (UniProt Q99661), the “dose-dependent thermal stabilisation call” value is inactive: 0.
In the case of LRRFIP2 (UniProt Q9Y608) it was inactive: 0; in that of LEMD3 (UniProt Q9Y2U8), inactive: 0; in that of LENG8 (UniProt Q96PV6), inactive: 0.
Consider LRRC57 (UniProt Q8N9N7), for which the “dose-dependent thermal stabilisation call” value was inactive: 0.
